For at least one compound, name, drawing or mass did not settle the structure.
System: DMBA-induced rat mammary carcinomas
Assay: Regression of DMBA-induced mammary carcinomas, pair-feeding study
Type: in vivo, Wistar-Furth rat
Settings: 10% limonene diet or 2.5% POH diet
Description: We used Wistar-Furth female rats for in vivo studies. Wistar-Furth female rats were obtained from Harlan Sprague-Dawley, Inc., (Madison, Wis.). All rats, arriving at 43-48 days of age, were housed at four rats per cage in wire-bottom metal cages and all were maintained with a light/dark cycle of 12 hours. Rats were provided Teklad Lab blox chow and acidified water ad libitum.
After one week of acclimation, the carcinogen DMBA was administered to the rats, which were 50-55 days old at this point. The DMBA was dissolved in a stock solution of 20 mg DMBA/ml sesame oil, heated and allowed to cool to room temperature before administration. DMBA (Eastman Kodak, Rochester, N.Y.) was given as a single gastric intubation of 50 mg DMBA/kg rat body weight.
In the pair-feeding study, a group of 70 mammals was treated with DMBA. Beginning four weeks post carcinogen administration, mammals were weighed and palpated weekly. Upon palpation of the first mammary carcinoma (diameter≥3 mm), mammals were randomly assigned to control or 2.5% (w/w) perillyl alcohol diet and pair-fed.
Perillyl alcohol (>96% pure by GC analysis, Aldrich, Milwaukee, Wis.) and Teklad 4% mouse/rat diet meal were thoroughly mixed and stored at -20° C. […] For pair-feeding, the quantity of diet consumed by the monoterpene-fed mammals was measured every 24 hours and the assigned partner was pair-fed accordingly. […]

C=C(C)[C@H]1CC=C(C)CC1 [limonene]
Primary carcinoma complete regression (tumors regressed / tumors): 19 tumors out of 28
